In publication PMC9600610 one finds binding data, which are given here for four substances.

Chains of the proteins cited; added tags and fusions are not shown.
UniProt P02584: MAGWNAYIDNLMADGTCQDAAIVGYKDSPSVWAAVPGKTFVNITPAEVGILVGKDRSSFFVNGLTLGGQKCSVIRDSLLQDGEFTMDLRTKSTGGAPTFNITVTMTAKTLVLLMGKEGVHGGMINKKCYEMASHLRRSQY
UniProt P61585: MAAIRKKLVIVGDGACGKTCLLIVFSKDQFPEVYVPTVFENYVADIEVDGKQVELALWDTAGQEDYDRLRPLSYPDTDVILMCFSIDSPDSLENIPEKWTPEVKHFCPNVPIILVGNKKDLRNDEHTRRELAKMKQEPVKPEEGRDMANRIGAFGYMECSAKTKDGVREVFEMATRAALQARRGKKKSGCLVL
UniProt Q2TA49: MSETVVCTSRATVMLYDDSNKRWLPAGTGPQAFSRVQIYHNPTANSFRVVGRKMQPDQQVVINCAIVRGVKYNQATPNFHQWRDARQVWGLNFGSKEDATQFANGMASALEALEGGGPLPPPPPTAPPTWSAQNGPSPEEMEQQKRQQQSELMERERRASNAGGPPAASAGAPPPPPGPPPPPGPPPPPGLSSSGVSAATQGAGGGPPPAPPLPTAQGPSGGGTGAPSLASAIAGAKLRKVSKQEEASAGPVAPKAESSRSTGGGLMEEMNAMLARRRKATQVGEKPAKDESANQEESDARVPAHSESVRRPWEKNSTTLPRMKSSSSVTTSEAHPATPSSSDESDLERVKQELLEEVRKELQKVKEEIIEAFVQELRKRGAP
UniProt Q2KJ93: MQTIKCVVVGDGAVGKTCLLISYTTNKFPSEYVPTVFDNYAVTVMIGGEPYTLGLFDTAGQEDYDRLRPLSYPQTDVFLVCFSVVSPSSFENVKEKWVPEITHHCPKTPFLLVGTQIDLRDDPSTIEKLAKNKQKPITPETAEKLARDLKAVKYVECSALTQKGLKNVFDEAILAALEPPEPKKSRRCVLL
UniProt Q1RMJ6: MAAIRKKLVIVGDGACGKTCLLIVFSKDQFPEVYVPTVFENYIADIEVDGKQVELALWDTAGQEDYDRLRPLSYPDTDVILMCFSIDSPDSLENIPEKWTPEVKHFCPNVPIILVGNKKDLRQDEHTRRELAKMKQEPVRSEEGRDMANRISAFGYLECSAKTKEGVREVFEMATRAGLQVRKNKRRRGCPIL

The experiment concerns the target Profilin1 (bovine (endogenous in bovine myoblasts)) (UniProt P02584). Put plainly: affinity purification with mass spectrometry; PFN1 antibody or IgG on protein A/G magnetic beads, incubated with lysate of DM2 bovine myoblasts at 4 °C overnight; SDS-PAGE and mass spectrometry; proteins found only in the IP group deemed potential binding proteins.

No constants are given. Whether binding was seen depends on the method and setting. In cells and extracts the contact can be indirect. Here binding means that the protein was enriched with, or labelled near, the bait; the list need not be complete.

RhoA (from UniProt P61585 1-193): the binding entry was “binds”.
The value for VASP (from UniProt Q2TA49 1-383) was “binds”; that for Cdc42 (from UniProt Q2KJ93 1-191) was “binds”.
On to RhoC (from UniProt Q1RMJ6 1-193), for which the binding result is “binds”.
